Drawing on PubChem BioAssay AID330 (DTP/NCI, 2004), this text covers survivor count and T/C for 22 molecules.

In the experiment the test system is P388 leukemia ip, CD2F1 mice, survival T/C. Nature of the experiment: NCI In Vivo Anticancer Drug Screen. Data for tumor model P388 Leukemia (intraperitoneal) in CD2F1 (CDF1) mice. The following applies: T/C endpoint: median survival time, higher T/C = longer survival.
Setting [1] is: dose: 120.0 mg/kg/injection, schedule: Q01DX005 (ip), vehicle: saline with Tween-80.
The mark [2] stands for this setting: dose: 240.0 mg/kg/injection, schedule: Q01DX005 (ip), vehicle: saline with Tween-80.
[3] abbreviates: dose: 12.5 mg/kg/injection, schedule: Q01DX009 (ip), vehicle: saline with Tween-80.
The mark [4] stands for this setting: dose: 25.0 mg/kg/injection, schedule: Q01DX009 (ip), vehicle: saline with Tween-80.
Setting [5] is: dose: 100.0 mg/kg/injection, schedule: Q04DX002 (ip), vehicle: saline with Tween-80.
[6] abbreviates: dose: 200.0 mg/kg/injection, schedule: Q04DX002 (ip), vehicle: saline with Tween-80.
Setting [7] is: dose: 400.0 mg/kg/injection, schedule: Q04DX002 (ip), vehicle: saline with Tween-80.
The mark [8] stands for this setting: dose: 200.0 mg/kg/injection, schedule: Q01DX005 (ip), vehicle: saline with Tween-80.

The list shows only some results of the screen, not a fair sample: it gathers tests that were run many times, whatever their T/C, doses with no T/C, and many T/C values between a quarter and a half above the control. Further doses and runs are listed elsewhere. T/C: endpoint of the treated group in % of that of the vehicle group. Some doses have a count of surviving animals in place of a T/C: the source holds a T/C of zero for them, seemingly a mark for toxic or unscored doses. Some doses without a T/C left all or most animals alive at the check, yet need not have been tolerated: survival well below the control is almost never listed, so the zero probably covers shortened survival too. Counts of survivors are from the toxicity check (mostly the fifth day) where no day follows; animals may have died later. Schedules are NCI's codes, read here as Q, the interval in days (D) or hours (H), X, the number of doses. Some entries hold several experiments; their values stand side by side, smallest first. Where survival is the endpoint, the PubChem record calls one and a half times the control and up active, and a quarter to a half above the control has no call in these data; cut-offs in other NCI protocols can differ. Some T/C values carry the count of animals alive at the toxicity check (mostly the fifth day); where none is given, no animal had died by that day.

On to `N#CC(=O)Nc1ccc(Cl)cc1`, for which the survivor count reads like this: (dose: 30.0 mg/kg/injection, schedule: Q01DX005 (ip), vehicle: saline with Tween-80) 4 of 6; (dose: 60.0 mg/kg/injection, schedule: Q01DX005 (ip), vehicle: saline with Tween-80) 0 of 6; under setting [1], 0 of 6; under setting [2], 0 of 6.

For `C=CCc1ccc(OCCOC(=O)Nc2cccc(SC)c2)c(OC)c1`, the survivor count (dose: 50.0 mg/kg/injection, schedule: Q01DX009 (ip), vehicle: DMSO) was 6 of 6; the survivor count (dose: 100.0 mg/kg/injection, schedule: Q01DX009 (ip), vehicle: DMSO) is on record as 6 of 6; the survivor count (dose: 200.0 mg/kg/injection, schedule: Q01DX009 (ip), vehicle: DMSO) is given as 2 of 6.

With `COC(=O)Cn1/c(=N\N=C(/C)c2ccc(C)cc2)sc2ccccc21`, the survivor count (dose: 400.0 mg/kg/injection, schedule: Q01DX001 (ip), vehicle: saline with Tween-80) is given as 6 of 6.

As to `COc1ccc(OC)c(C2N(Cc3ccccc3N(C)C)CCCN2Cc2ccccc2N(C)C)c1`, the survivor count (dose: 200.0 mg/kg/injection, schedule: Q04DX003 (ip), vehicle: saline with Tween-80) is 3 of 6.

Turning to `CN(N=O)C1=NC(C)(CCl)P(=O)(NNc2ncccn2)O1` (stereo not given), the survivor count (dose: 240.0 mg/kg/injection, schedule: Q01DX005 (ip), vehicle: saline) is recorded as 0 of 6.

Take `C=CC(=O)NCNC(=O)CCBr`: the T/C reads like this: under setting [3], 127 % of control; under setting [4], 140 % of control; (dose: 50.0 mg/kg/injection, schedule: Q01DX009 (ip), vehicle: saline with Tween-80) 131 % of control; (dose: 50.0 mg/kg/injection, schedule: Q04DX003 (ip), vehicle: saline with Tween-80) 127 % of control; (dose: 100.0 mg/kg/injection, schedule: Q04DX003 (ip), vehicle: saline with Tween-80) 127 % of control; (dose: 132.0 mg/kg/injection, schedule: Q04DX003 (ip), vehicle: saline with Tween-80) 140 % of control. Besides, the survivor count (dose: 100.0 mg/kg/injection, schedule: Q01DX009 (ip), vehicle: saline with Tween-80) was 6 of 6; the survivor count (dose: 200.0 mg/kg/injection, schedule: Q01DX009 (ip), vehicle: saline with Tween-80) is on record as 6 of 6; the survivor count (dose: 400.0 mg/kg/injection, schedule: Q04DX003 (ip), vehicle: saline with Tween-80) is 6 of 6.

With `CN=C(N)N/N=C(\C)c1ccc(-c2ccccc2)cc1`, the survivor count under setting [5] was 1 of 6.

With `CC[C@@]1(O)C(=O)OCc2c1cc1n(c2=O)Cc2cc3cc(OC)ccc3nc2-1`, the T/C reads like this: (dose: 0.39 mg/kg/injection, schedule: Q04DX003 (ip), vehicle: other) 127 % of control; (dose: 0.79 mg/kg/injection, schedule: Q04DX003 (ip), vehicle: other) 138 % of control. The survivor count (dose: 6.25 mg/kg/injection, schedule: Q04DX003 (ip), vehicle: other) was 6 of 6 and the survivor count (dose: 12.5 mg/kg/injection, schedule: Q04DX003 (ip), vehicle: other) is 3 of 6.

For the molecule `CNC(=O)Oc1[nH]c(=O)ncc1I`, under setting [6], the T/C is 131 % of control [5 of 6 alive]. For the same molecule, the survivor count under setting [7] was 0 of 6 and 3 of 6.

In the case of `CC#CS(=O)C#CC`, the survivor count reads like this: (dose: 12.5 mg/kg/injection, schedule: Q01DX009 (ip), vehicle: distilled water + alcohol) 1 of 6; (dose: 25.0 mg/kg/injection, schedule: Q01DX009 (ip), vehicle: distilled water + alcohol) 0 of 6.

Regarding `S=C=NCCCCCCCCCCCCN=C=S`, under setting [3], the T/C is 138 % of control and the survivor count was 2 of 6. Under setting [4], the survivor count is reported as 2 of 6.

Turning to `Br[CH](Br)[Hg][c]1ccccc1`, where the note is “dose: 400.0 mg/kg/injection, schedule: Q01DX001 (ip), vehicle: Klucel (hydroxypropylcellulose) (HPC)”, the survivor count is on record as 1 of 6.

For the molecule `COC(=O)c1cc(-c2ccc3ccccc3c2)[nH]c(=O)c1C#N`, the survivor count is, setting by setting: under setting [1], 6 of 6; under setting [2], 1 of 6.

As for `CCN(CC)c1ccc2[nH]c3c(C(N)=O)cc(=O)c(=O)c=3oc2c1`, the T/C (dose: 50.0 mg/kg/injection, schedule: Q01DX005 (ip), vehicle: saline with Tween-80) was 137 % of control. For the same molecule, the survivor count under setting [8] was 1 of 5.

For `COC(=O)[C@@]12OC[C@]34[C@H]([C@@H](O)[C@@H]1O)[C@@]1(C)CC(=O)C(OC(=O)CC(=O)OC5=C(C)[C@@H]6C[C@H]7OC(=O)[C@H](OC(=O)C=C(C)C)[C@H]8[C@]9(C(=O)OC)OC[C@]78[C@H]([C@@H](O)[C@@H]9O)[C@@]6(C)CC5=O)=C(C)[C@@H]1C[C@H]3OC(=O)[C@H](OC(=O)C=C(C)C)[C@@H]24`, the T/C (dose: 0.38 mg/kg/injection, schedule: Q01DX009 (ip), vehicle: saline + Tween-80 + alcohol) was 131 % of control; the T/C (dose: 0.75 mg/kg/injection, schedule: Q01DX009 (ip), vehicle: saline + Tween-80 + alcohol) is 131 % of control; the T/C (dose: 1.5 mg/kg/injection, schedule: Q01DX009 (ip), vehicle: saline + Tween-80 + alcohol) was 135 % of control; the T/C (dose: 3.0 mg/kg/injection, schedule: Q01DX009 (ip), vehicle: saline + Tween-80 + alcohol) was 131 % of control.

On to `O=C(NC1CCCCC1NC(=O)C12CC3CC(CC(C3)C1)C2)C12CC3CC(CC(C3)C1)C2` (stereo not given), for which the survivor count reads like this: (dose: 25.0 mg/kg/injection, schedule: Q01DX005 (ip), vehicle: Klucel (hydroxypropylcellulose) (HPC)) 6 of 6; (dose: 50.0 mg/kg/injection, schedule: Q01DX005 (ip), vehicle: Klucel (hydroxypropylcellulose) (HPC)) 6 of 6; (dose: 100.0 mg/kg/injection, schedule: Q01DX005 (ip), vehicle: Klucel (hydroxypropylcellulose) (HPC)) 6 of 6.

As to `Oc1c(Cl)c(Cl)c(O)c2c1CCCC2`, the survivor count reads like this: under setting [5], 0 of 6; under setting [6], 0 of 6; under setting [7], 0 of 6.

`Cc1cn(C2CC(O)C(CO)O2)c(=O)[nH]c1=O` (stereo not given): the T/C runs as follows: (dose: 32.0 mg/kg/injection, schedule: Q01DX009 (ip), vehicle: saline) 96 [5 of 6 alive], 97, 100, 105 % of control; (dose: 64.0 mg/kg/injection, schedule: Q01DX009 (ip), vehicle: saline) 91, 100, 101, 109 % of control; (dose: 128.0 mg/kg/injection, schedule: Q01DX009 (ip), vehicle: saline) 91, 99, 101, 127 % of control; (dose: 256.0 mg/kg/injection, schedule: Q01DX009 (ip), vehicle: saline) 91, 92, 98, 102 % of control; (dose: 500.0 mg/kg/injection, schedule: Q01DX009 (ip), vehicle: saline, evaluated on day 5) 102 and 103 % of control; (dose: 500.0 mg/kg/injection, schedule: Q01DX009 (ip), vehicle: saline, evaluated on day 30) 96 and 109 % of control.

For `CCN(CC)CCCN(C)Cc1c(-c2ccccc2)oc(-c2ccccc2)c1Cl`, the survivor count is, setting by setting: (dose: 100.0 mg/kg/injection, schedule: Q01DX005 (ip), vehicle: saline with Tween-80) 0 of 5; under setting [8], 0 of 5.

Turning to `CC(=O)NNC(=O)CCCCCCC(=O)NNC(C)=O`, the survivor count is, setting by setting: (dose: 200.0 mg/kg/injection, schedule: Q01DX005 (ip), vehicle: Klucel (hydroxypropylcellulose) (HPC)) 3 of 6; (dose: 400.0 mg/kg/injection, schedule: Q01DX005 (ip), vehicle: Klucel (hydroxypropylcellulose) (HPC)) 0 of 6.

Take `CN1CCCCC1Cc1ccccc1` (stereo not given): the survivor count is, setting by setting: (dose: 50.0 mg/kg/injection, schedule: Q01DX005 (ip), vehicle: saline) 1 of 6; (dose: 100.0 mg/kg/injection, schedule: Q01DX005 (ip), vehicle: saline) 0 of 6; (dose: 200.0 mg/kg/injection, schedule: Q01DX005 (ip), vehicle: saline) 0 of 6.

In the case of `Cc1cc(C)c(OP(=S)(Oc2c(C)cc(C)cc2C)Oc2c(C)cc(C)cc2C)c(C)c1`, the survivor count (dose: 400.0 mg/kg/injection, schedule: Q04DX002 (ip), vehicle: Klucel (hydroxypropylcellulose) (HPC)) was 6 of 6.
